Construct, isoform or probe ends are uncertain for at least one entry. Protein sequences can lack the tags named with them.

The target of this data set is T1, Flag-RIG-I (Homo sapiens) (UniProt O95786).
T1 sequence (looked up, limits assumed): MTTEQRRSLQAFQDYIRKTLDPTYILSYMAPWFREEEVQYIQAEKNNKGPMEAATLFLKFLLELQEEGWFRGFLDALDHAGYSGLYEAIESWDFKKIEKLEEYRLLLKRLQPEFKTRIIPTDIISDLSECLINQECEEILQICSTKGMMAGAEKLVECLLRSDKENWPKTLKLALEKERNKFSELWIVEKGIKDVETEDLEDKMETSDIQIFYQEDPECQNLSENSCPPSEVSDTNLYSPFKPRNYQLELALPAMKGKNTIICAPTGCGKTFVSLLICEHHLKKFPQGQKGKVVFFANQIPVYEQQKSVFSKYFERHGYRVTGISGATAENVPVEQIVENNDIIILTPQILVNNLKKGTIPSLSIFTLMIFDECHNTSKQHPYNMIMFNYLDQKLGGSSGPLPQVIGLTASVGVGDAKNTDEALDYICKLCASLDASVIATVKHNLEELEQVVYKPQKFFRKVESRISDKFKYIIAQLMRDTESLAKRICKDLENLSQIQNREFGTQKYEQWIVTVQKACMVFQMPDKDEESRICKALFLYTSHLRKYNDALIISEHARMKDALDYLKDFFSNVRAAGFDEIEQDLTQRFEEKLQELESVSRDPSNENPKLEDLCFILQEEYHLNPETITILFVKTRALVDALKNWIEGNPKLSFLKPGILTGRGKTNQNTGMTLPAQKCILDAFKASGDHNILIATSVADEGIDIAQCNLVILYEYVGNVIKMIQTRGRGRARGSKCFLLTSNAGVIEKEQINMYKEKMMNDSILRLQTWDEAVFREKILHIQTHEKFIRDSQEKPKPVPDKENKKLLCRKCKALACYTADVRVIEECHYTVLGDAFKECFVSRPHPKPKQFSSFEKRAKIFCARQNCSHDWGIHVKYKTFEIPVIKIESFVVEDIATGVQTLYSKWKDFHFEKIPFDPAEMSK
Description: pull-down. Conditions: 3'-phosphate or 5'-triphosphate; one clone; purified recombinant protein; protein details: FLAG, from 293T cells.

“UGGGUGUGCGCGCGACGAGGAAGACUUCCGAGCGGUCGCAACCUCGAGGUAGACGUCAGCCUAUC [svRNA4]”: the binding result is listed as “binds”.

Values taken from patent publication US20120251571, “RNASE L-MEDIATED CLEAVAGE PRODUCTS AND USES […]” (The Cleveland Clinic Foundation, published 2012).
